Values are relative to the signal before dosing, not to a vehicle control; the signal also falls without drug.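 Fibroblast labels denote human fibroblasts, mainly primary ones from uterus (C12385, HUF), lung (H6013), bone (Hs27A), adrenal (HADF) and skin (WS1), plus mammary HMF and breast cancer-associated Hs343T. Cancer cells are basal-like or mesenchymal-like triple-negative breast cancer lines. A hit is a response shift exceeding 3x replicate standard deviation. The tissue of the other fibroblasts is not given here.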
System: MDAMB436
Test: relative JC-1 red fluorescence (viability) vs pre-drug, coculture with fibroblast (fraction); higher = more viable cancer cells
Procedure: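 JC-1 labelled TNBC cells cocultured 1:1 (1,500 cells each) with CellTrace Violet stained primary or stromal fibroblasts in 384-well plates in FluoroBrite medium, treated with one of 42 anticancer drugs at 0.1, 1, 10 or 100 uM. JC-1 red fluorescence (mitochondrial integrity in cancer cells only) was read by plate reader every 8 h for 72 h. Values are normalised to each well's pre-drug value. The stock of one drug was tenfold lower, so its dose labels may be too high.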

CC(C)C[C@H](NC(=O)[C@@H](COC(C)(C)C)NC(=O)[C@H](Cc1ccc(O)cc1)NC(=O)[C@H](CO)NC(=O)[C@H](Cc1c[nH]c2ccccc12)NC(=O)[C@H](Cc1cnc[nH]1)NC(=O)[C@@H]1CCC(=O)N1)C(=O)N[C@@H](CCCNC(=N)N)C(=O)N1CCC[C@H]1C(=O)NNC(N)=O [Goserelin]
relative JC-1 red fluorescence
Conditions | 8 h | 16 h | 24 h | 32 h | 40 h | 48 h | 56 h | 64 h | 72 h
10 µM, coculture fibroblast: C12385 | 0.827 | 0.699 | 0.661 | 0.564 | 0.508 | 0.473 | 0.45 | 0.419 | 0.409
10 µM, coculture fibroblast: H6013 | 0.848 | 0.775 | 0.766 | 0.76 | 0.745 | 0.76 | 0.728 | 0.712 | 0.664
10 µM, coculture fibroblast: H6019 | 0.74063 | 0.688 | 0.644 | 0.561 | 0.519 | 0.498 | 0.469 | 0.444 | 0.417
10 µM, coculture fibroblast: H6076 | 0.658 | 0.601 | 0.584 | 0.544 | 0.536 | 0.509 | 0.521 | 0.5149 | 0.4979
10 µM, coculture fibroblast: H6231 | 0.736 | 0.632 | 0.583 | 0.5022 | 0.473 | 0.4365 | 0.41831 | 0.4 | 0.3864
10 µM, coculture fibroblast: HADF | 0.838 | 0.7672 | 0.749 | 0.724 | 0.7198 | 0.746 | 0.691 | 0.685 | 0.648
10 µM, coculture fibroblast: HCFa | 0.772 | 0.6876 | 0.64 | 0.589 | 0.555 | 0.559 | 0.494 | 0.485 | 0.432
10 µM, coculture fibroblast: HCPF | 0.727 | 0.602 | 0.579 | 0.511 | 0.4946 | 0.456 | 0.4388 | 0.4166 | 0.406
10 µM, coculture fibroblast: HHSteC | 0.8309 | 0.756 | 0.712 | 0.665 | 0.638 | 0.639 | 0.575 | 0.548 | 0.495
10 µM, coculture fibroblast: HMF | 0.649 | 0.583 | 0.54 | 0.5 | 0.483 | 0.452 | 0.459 | 0.445 | 0.439
10 µM, coculture fibroblast: HPFa | 0.881 | 0.784 | 0.758 | 0.709 | 0.682 | 0.688 | 0.601 | 0.562 | 0.475
10 µM, coculture fibroblast: HUF | 0.859 | 0.717 | 0.688 | 0.617 | 0.564 | 0.536 | 0.505 | 0.489 | 0.482
10 µM, coculture fibroblast: Hs5 | 0.71 | 0.668 | 0.664 | 0.611 | 0.593 | 0.55 | 0.551 | 0.505 | 0.4887
10 µM, coculture fibroblast: Hs27A | 0.8363 | 0.782 | 0.766 | 0.734 | 0.698 | 0.751 | 0.653 | 0.635 | 0.55
10 µM, coculture fibroblast: Hs343T | 0.676 | 0.626 | 0.5784 | 0.529 | 0.514 | 0.477 | 0.467 | 0.4592 | 0.455
10 µM, coculture fibroblast: WS1 | 0.797 | 0.685 | 0.664 | 0.563 | 0.514 | 0.482 | 0.449 | 0.416 | 0.406
100 µM, coculture fibroblast: C12385 | 0.841 | 0.722 | 0.729 | 0.642 | 0.586 | 0.559 | 0.535 | 0.512 | 0.498
100 µM, coculture fibroblast: H6013 | 0.874 | 0.75 | 0.741 | 0.724 | 0.707 | 0.723 | 0.686 | 0.667 | 0.625
100 µM, coculture fibroblast: H6019 | 0.7861 | 0.7128 | 0.707 | 0.64 | 0.595 | 0.578 | 0.537 | 0.503 | 0.465
100 µM, coculture fibroblast: H6076 | 0.7931 | 0.656 | 0.6375 | 0.58913 | 0.5588 | 0.526 | 0.538 | 0.533 | 0.529
100 µM, coculture fibroblast: H6231 | 0.759 | 0.661 | 0.619 | 0.5684 | 0.529 | 0.4955 | 0.4808 | 0.4636 | 0.439
100 µM, coculture fibroblast: HADF | 0.907 | 0.844 | 0.768 | 0.728 | 0.695 | 0.695 | 0.637 | 0.618 | 0.567
100 µM, coculture fibroblast: HCFa | 0.8137 | 0.721 | 0.688 | 0.6528 | 0.6124 | 0.632 | 0.562 | 0.55 | 0.497
100 µM, coculture fibroblast: HCPF | 0.84 | 0.744 | 0.6647 | 0.622 | 0.57278 | 0.5252 | 0.488 | 0.468 | 0.436
100 µM, coculture fibroblast: HHSteC | 0.884 | 0.836 | 0.818 | 0.787 | 0.776 | 0.778 | 0.716 | 0.684 | 0.627
100 µM, coculture fibroblast: HMF | 0.81 | 0.691 | 0.597 | 0.554 | 0.514 | 0.478 | 0.467 | 0.452 | 0.442
100 µM, coculture fibroblast: HPFa | 0.91 | 0.847 | 0.792 | 0.742 | 0.712 | 0.713 | 0.618 | 0.572 | 0.48
100 µM, coculture fibroblast: HUF | 0.8511 | 0.763 | 0.739 | 0.671 | 0.6164 | 0.5909 | 0.5609 | 0.538 | 0.533
100 µM, coculture fibroblast: Hs5 | 0.826 | 0.715 | 0.663 | 0.595 | 0.563 | 0.514 | 0.52 | 0.492 | 0.47
100 µM, coculture fibroblast: Hs27A | 0.852 | 0.807 | 0.784 | 0.75 | 0.728 | 0.783 | 0.679 | 0.648 | 0.565
100 µM, coculture fibroblast: Hs343T | 0.815 | 0.687 | 0.595 | 0.535 | 0.492 | 0.45 | 0.428 | 0.417 | 0.405
100 µM, coculture fibroblast: WS1 | 0.825 | 0.716 | 0.725 | 0.651 | 0.611 | 0.587 | 0.557 | 0.531 | 0.509
